PubChem BioAssay AID504786 – Drosophila RNAi Screening Center – 2011
Assay: 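Positive regulators of HIF-driven reporter output in Drosophila cells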 (primary screen). Cell system: Drosophila S2 cells with a stable HIF luciferase reporter. Knock-down reagent: long dsRNA against Drosophila genes, about 0.2 µg dsRNA per well of a 384-well plate. Duration: three days of knock-down, then 20 h of DFO before reading. Conditions: desferrioxamine (DFO) at 100 µM, an iron chelator that mimics hypoxia, for 20 h. Read-out: 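Firefly luciferase driven by the mouse ldh-a hypoxia-response element, measured after 20 h of 100 µM DFO; z-scores per plate, higher means more signal lost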. Reading the numbers: z-score: higher = stronger loss of HIF reporter signal.
The deposit covers about 21,000 reagents; this is a random part of those that have a named target and a result. 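Primary screen; positive scores mean lost reporter signal, so the sign may be inverted from the usual convention.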 Reagents against one gene are numbered here.

crm: z-score, replicate 1 = -0.3; z-score, replicate 2 = -0.5
fiz: z-score, replicate 1 = -0.1; z-score, replicate 2 = -0.7
PSMG1: z-score, replicate 1 = -0.4; z-score, replicate 2 = -0.5
vari: z-score, replicate 1 = -0.2; z-score, replicate 2 = -0.1
CG3625 #1: z-score, replicate 1 = 0; z-score, replicate 2 = 0.5
CG3625 #2: z-score, replicate 1 = -0.2; z-score, replicate 2 = 0.5
Chs2: z-score, replicate 1 = -0.3; z-score, replicate 2 = -0.1
Sgs5: z-score, replicate 1 = -0.2; z-score, replicate 2 = -0.4
Noc3: z-score, replicate 1 = -0.3; z-score, replicate 2 = 1.3
CG3386: z-score, replicate 1 = -0.3; z-score, replicate 2 = -0.2
CR41501: z-score, replicate 1 = 0.1; z-score, replicate 2 = 0.1
CG6465: z-score, replicate 1 = -0.4; z-score, replicate 2 = -0.2
CG33128: z-score, replicate 1 = -0.3; z-score, replicate 2 = -0.6
CG5013: z-score, replicate 1 = -0.5; z-score, replicate 2 = -0.5
Dbp21E2: z-score, replicate 1 = -0.3; z-score, replicate 2 = -0.3
Jon44E: z-score, replicate 1 = -0.3; z-score, replicate 2 = -0.3

Look-ups from the list:
CG6465, z-score, replicate 1: -0.4
Under “z-score, replicate 1”, vari has -0.2
